Source: paper PMC3475670
No constants are given. Whether binding was seen depends on the method and setting. Binding seen in cells or lysates may run through a third protein. Where a sequence is shown, tags or fusion partners need not be part of it.

Amino acid sequences for entries named in this document (tags omitted).
UniProt Q9UN81: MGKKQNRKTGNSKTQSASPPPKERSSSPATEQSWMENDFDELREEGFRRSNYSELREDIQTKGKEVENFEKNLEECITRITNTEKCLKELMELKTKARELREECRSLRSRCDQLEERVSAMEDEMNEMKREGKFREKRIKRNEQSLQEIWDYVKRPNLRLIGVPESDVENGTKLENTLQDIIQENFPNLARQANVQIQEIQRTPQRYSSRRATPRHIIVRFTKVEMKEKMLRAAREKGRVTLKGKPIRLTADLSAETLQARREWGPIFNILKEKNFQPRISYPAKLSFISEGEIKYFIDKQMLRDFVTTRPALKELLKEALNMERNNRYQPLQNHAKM

Target: T1, V5-tagged fibrillarin (FBL) (UniProt P22087)
T1 sequence: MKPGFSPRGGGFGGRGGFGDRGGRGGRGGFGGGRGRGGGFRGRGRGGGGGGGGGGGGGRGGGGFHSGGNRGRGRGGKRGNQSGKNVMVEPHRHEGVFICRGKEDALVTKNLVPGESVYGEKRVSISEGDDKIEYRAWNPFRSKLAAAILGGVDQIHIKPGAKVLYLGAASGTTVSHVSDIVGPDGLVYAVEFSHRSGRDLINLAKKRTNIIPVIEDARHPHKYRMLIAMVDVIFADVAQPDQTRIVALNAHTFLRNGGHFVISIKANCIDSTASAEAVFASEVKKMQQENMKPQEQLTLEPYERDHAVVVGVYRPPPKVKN
Experiment: co-IP; V5-tagged proteins transfected in 2102Ep cells and precipitated on Protein G Agarose/Salmon Sperm DNA; endogenous ORF1p detected with the α-ORF1p AH40.1 antibody

endogenous L1 ORF1 protein (from UniProt Q9UN81 1-338)
binding: no binding
